Test results reported in publication PMC3640046, “Structural Insights into a Wildtype Domain of the Oncoprotein E6 and Its Interaction with a PDZ Domain” (PLoS ONE, 2013).
These are yes or no findings as the source states them, for the method shown.

Experiments:
[1] = biological target: second (C-terminal) zinc-binding domain of HPV 51 E6 (human papilloma virus type 51 (HPV 51)) (UniProt P26554); test: dynamic light scattering; hydrodynamic radius of purified 51Z2; both purified
[2] = biological target: second (C-terminal) zinc-binding domain of HPV 51 E6 (human papilloma virus type 51 (HPV 51)) (UniProt P26554); test: SEC; analytical gel-filtration of 51Z2 on a TSK gel G3000SWxl column, calibrated with reference proteins; both purified

Q: For “second (C-terminal) zinc-binding domain of HPV 51 E6 (from UniProt P26554 80-151) (domain or fragment)”, which binding [1] is on record?
A: The binding was “no binding”.

Q: And the binding [2]?
A: Its binding is “no binding”.
